We go through 70 compounds from the supplement of paper PMC4749390.

Structures can show the parent of a compound that is named as a salt. Some of the results follow. This data set is noisy: repeats of one test often differ as much as different tests do.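 Wild-type human LRH-1, a heavily sumoylated nuclear receptor, is tetracycline-inducible in stable JEG3 cells. RT-qPCR measured SUMO-sensitive APOC3 and MUC1 transcripts, which rise with SUMO-less LRH-1 or UBC9 knockdown, versus TBP and DMSO controls. Robust Z-scores beyond ±2 flagged primary hits, followed by toxicity and TBP filtering.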

For the test, the system named is JEG3 expressing hLRH-1. As to the kind of experiment: APOC3 transcript change (ddCt vs TBP and DMSO), Z-score over library; higher = higher APOC3 expression. To be noted: 10 µM; time (hr): 24.
For the compound `COc1ccccc1OCC(O)CO` (stereo not given) [guaifenesin], the “APOC3 transcript change (Z-score)” value is -0.258.

For `CC[C@]1(O)C[C@H]2CN(CCc3c([nH]c4ccccc34)[C@@](C(=O)OC)(c3cc4c(cc3OC)N(C=O)[C@H]3[C@@](O)(C(=O)OC)[C@H](OC(C)=O)[C@]5(CC)C=CCN6CC[C@]43[C@@H]65)C2)C1` [vincristine sulfate], the “APOC3 transcript change (Z-score)” value was -3.6.

As for `NC[C@@H]1O[C@H](O[C@H]2[C@@H](O)[C@H](O[C@@H]3[C@@H](O)[C@H](N)C[C@H](N)[C@H]3O[C@H]3O[C@H](CO)[C@@H](O)[C@H](O)[C@H]3N)O[C@@H]2CO)[C@H](N)[C@@H](O)[C@@H]1O` [paromomycin sulfate], the “APOC3 transcript change (Z-score)” value is -0.09.

For `CN(C)CCCN1c2ccccc2CCc2ccc(Cl)cc21` [Clomipramine hydrochloride], the “APOC3 transcript change (Z-score)” value was 0.151.

For the compound `CN(N=O)C(=O)N[C@@H]1[C@@H](O)[C@H](O)[C@@H](CO)O[C@@H]1O` [streptozosin], the “APOC3 transcript change (Z-score)” value is 0.469.

Consider `CC/C(=C(/CC)c1ccc(O)cc1)c1ccc(O)cc1` [diethylstilbestrol], for which the “APOC3 transcript change (Z-score)” value worked out at 0.0929.

Turning to `COc1cc(C(=O)NCc2ccc(OCCN(C)C)cc2)cc(OC)c1OC` [trimethobenzamide hydrochloride], the “APOC3 transcript change (Z-score)” value is -1.19.

On to `Cc1cc(C(C)(C)C)c(O)c(C)c1CC1=NCCN1` [Oxymetazoline hydrochloride], for which the “APOC3 transcript change (Z-score)” value stood at 0.301.

Turning to `CO/N=C(\C(=O)N[C@@H]1C(=O)N2C(C(=O)O)=C(CSc3nnnn3C)CS[C@H]12)c1csc(N)n1` [cefmenoxime hydrochloride], the “APOC3 transcript change (Z-score)” value is -0.937.

Take `CC(=O)O[C@H]1CC2CCC3C(CC[C@@]4(C)C3C[C@H]([N+]3(C)CCCCC3)[C@@H]4OC(C)=O)[C@@]2(C)C[C@@H]1N1CCCCC1` (stereo not given in full) [vecuronium bromide]: the “APOC3 transcript change (Z-score)” value turned out to be 0.831.

On to `CNNCc1ccc(C(=O)NC(C)C)cc1` [procarbazine hydrochloride], for which the “APOC3 transcript change (Z-score)” value was -1.07.

In the case of `CC1=C(C(=O)O)N2C(=O)[C@@H](NC(=O)[C@H](N)C3=CCC=CC3)C2SC1` (stereo not given in full) [cephradine], the “APOC3 transcript change (Z-score)” value worked out at 1.02.

Regarding `C[C@H]1O[C@@H](O[C@H]2[C@@H](O)C[C@H](O[C@H]3[C@@H](O)C[C@H](O[C@H]4CC[C@@]5(C)[C@H](CC[C@@H]6[C@@H]5C[C@@H](O)[C@]5(C)[C@@H](C7=CC(=O)OC7)CC[C@]65O)C4)O[C@@H]3C)O[C@@H]2C)C[C@H](O)[C@@H]1O` [digoxin], the “APOC3 transcript change (Z-score)” value was -4.56.

As for `NCCCC[C@H](N[C@@H](CCc1ccccc1)C(=O)O)C(=O)N1CCC[C@H]1C(=O)O` [lisinopril], the “APOC3 transcript change (Z-score)” value was 0.409.

Consider `CCN(CCCCOC(=O)c1ccc(OC)c(OC)c1)C(C)Cc1ccc(OC)cc1` (stereo not given) [mebeverine hydrochloride], for which the “APOC3 transcript change (Z-score)” value is -0.457.

As to `O=C(N/N=C/c1ccc([N+](=O)[O-])o1)c1ccc(O)cc1` [nifuroxazide], the “APOC3 transcript change (Z-score)” value was -1.21.

As for `N=C(N)N1CCc2ccccc2C1` [Debrisoquin sulfate], the “APOC3 transcript change (Z-score)” value is -1.1.

As to `CCCCCCCCCCCCCCCCCCCCCCO` [docosanol], the “APOC3 transcript change (Z-score)” value turned out to be 1.77.

As to `COc1ccccc1N1CCN(CCCNc2cc(=O)n(C)c(=O)n2C)CC1` [Urapidil hydrochloride], the “APOC3 transcript change (Z-score)” value was -0.549.

As to `Cc1cc2c(s1)Nc1ccccc1N=C2N1CCN(C)CC1` [olanzapine], the “APOC3 transcript change (Z-score)” value is -0.00974.

As for `COc1ccc(O)cc1` [mequinol], the “APOC3 transcript change (Z-score)” value turned out to be 0.54.

As for `NCCCC(=O)O`, the “APOC3 transcript change (Z-score)” value is -1.06.

In the case of `COc1ccc2cc([C@H](C)C(=O)O)ccc2c1` [(+)naproxen], the “APOC3 transcript change (Z-score)” value worked out at 0.541.

In the case of `O=C(c1cccnc1)N1CCOCC1` [nicopholine], the “APOC3 transcript change (Z-score)” value was -0.776.

`CCn1cc(C(=O)O)c(=O)c2cc(F)c(N3CCNCC3)cc21` [norfloxacin]: the “APOC3 transcript change (Z-score)” value was -0.26.

Turning to `O=S(=O)(O)NC1CCCCC1` [cyclamic acid], the “APOC3 transcript change (Z-score)” value is -0.215.

Regarding `C[C@@H]1CC2C3CCC4=CC(=O)C=C[C@]4(C)[C@@]3(F)[C@@H](O)C[C@]2(C)[C@@]1(O)C(=O)CO` (stereo not given in full) [dexamethasone], the “APOC3 transcript change (Z-score)” value was 0.802.

As to `CC1C(OC(=O)C(O)c2ccccc2)CCC(C)(C)N1C` (stereo not given) [eucatropine hydrochloride], the “APOC3 transcript change (Z-score)” value is -0.554.

Regarding `CN(C(=O)CN(CCO)CC(=O)N(C)C(C)(C)Cc1ccccc1)C(C)(C)Cc1ccccc1` [oxethazaine], the “APOC3 transcript change (Z-score)” value was determined as 0.949.

Consider `O=C(N[C@H](CO)[C@H](O)c1ccc([N+](=O)[O-])cc1)C(Cl)Cl` [chloramphenicol], for which the “APOC3 transcript change (Z-score)” value amounted to 0.573.

Regarding `CCC[C@@H]1C[C@@H](C(=O)N[C@@H]([C@H]2O[C@H](SC)[C@H](O)[C@@H](O)[C@H]2O)[C@H](C)Cl)N(C)C1` [clindamycin hydrochloride], the “APOC3 transcript change (Z-score)” value was -0.0399.

In the case of `Cc1cccc(C)c1OCC(C)N` (stereo not given) [mexiletine hydrochloride], the “APOC3 transcript change (Z-score)” value is 0.238.

As for `CCN(CC)CCc1nc(-c2ccccc2)no1` [oxolamine citrate], the “APOC3 transcript change (Z-score)” value was -0.149.

For the compound `CC(C)(CO)C(O)C(=O)NCCCO` (stereo not drawn) [panthenol (dl)], the “APOC3 transcript change (Z-score)” value was -0.69.

`CCN(CC)CCNC(=O)c1cc(Cl)c(N)cc1OC` [Metoclopramide hydrochloride]: the “APOC3 transcript change (Z-score)” value is -0.0395.

Regarding `Cc1cnc(C(=O)O)c[n+]1[O-]` [acipimox], the “APOC3 transcript change (Z-score)” value was -0.384.

For the compound `C[N+](C)(C)C[C@H](O)CC(=O)O` [levocarnitine], the “APOC3 transcript change (Z-score)” value was 0.0974.

Turning to `C[C@@H]1CC2C3C[C@H](F)C4=CC(=O)C=C[C@]4(C)[C@@]3(F)[C@@H](O)C[C@]2(C)[C@@]1(O)C(=O)CO` (stereo not given in full) [flumethasone], the “APOC3 transcript change (Z-score)” value is 0.408.

Take `CC(=O)O[C@]1(C(C)=O)CCC2C3C=C(C)C4=CC(=O)CCC4(C)C3CCC21C` (stereo not given in full) [megestrol acetate]: the “APOC3 transcript change (Z-score)” value came to 0.579.

Regarding `CC(=O)[C@@]1(O)CC[C@H]2[C@@H]3C[C@H](C)C4=CC(=O)C=C[C@]4(C)[C@@]3(F)[C@@H](O)C[C@@]21C` [fluorometholone], the “APOC3 transcript change (Z-score)” value is 0.00543.

`CO/C(O)=C1\C(C)=NC(C)=C(C(=O)OCCN(C)Cc2ccccc2)C1c1cccc([N+](=O)[O-])c1` (stereo not given) [Nicardipine hydrochloride]: the “APOC3 transcript change (Z-score)” value was 1.02.

As for `O=C(NCC(O)CO)c1c(I)c(C(=O)NCC(O)CO)c(I)c(N(CCO)C(=O)CO)c1I` (stereo not given) [ioversol], the “APOC3 transcript change (Z-score)” value was -0.0537.

In the case of `CC(C)NCC(O)COc1ccc(CCOCC2CC2)cc1` (stereo not given) [betaxalol hydrochloride], the “APOC3 transcript change (Z-score)” value is -0.482.

Regarding `C[C@@H]1CC[C@H]2[C@@H](C)C(O)O[C@@H]3O[C@@]4(C)CC[C@@H]1[C@]32OO4` (stereo not given in full) [artenimol], the “APOC3 transcript change (Z-score)” value was 0.472.

For the compound `CC1(C)O[C@@H]2CC3C4C[C@H](F)C5=CC(=O)CC[C@]5(C)C4[C@@H](O)C[C@]3(C)[C@]2(C(=O)CO)O1` (stereo not given in full) [flurandrenolide], the “APOC3 transcript change (Z-score)” value was found to be 0.101.

Regarding `COC1=C(OC)C(=O)C(CCCCCCCCCCO)=C(C)C1=O` [idebenone], the “APOC3 transcript change (Z-score)” value was -0.866.

Consider `C[C@H](N[C@@H](CCc1ccccc1)C(=O)O)C(=O)N1CCC[C@H]1C(=O)O` [enalaprilat], for which the “APOC3 transcript change (Z-score)” value was -0.3.

With `C[C@](N)(Cc1ccc(O)c(O)c1)C(=O)O` [L-alpha-Methyl DOPA], the “APOC3 transcript change (Z-score)” value is 0.0704.

With `CO/N=C(/C(=O)N[C@@H]1C(=O)N2C(C(=O)O)=C(CSc3nc(=O)c(O)nn3C)CS[C@H]12)c1csc(N)n1` [ceftriaxone sodium trihydrate], the “APOC3 transcript change (Z-score)” value was -0.0894.

`CC[C@H](C)C(=O)O[C@H]1C[C@@H](C)C=C2C=C[C@H](C)[C@H](CC[C@@H]3C[C@@H](O)CC(=O)O3)[C@H]21` [lovastatin]: the “APOC3 transcript change (Z-score)” value was found to be 1.39.

`CCCCN1CCCCC1C(=O)Nc1c(C)cccc1C` (stereo not given) [bupivacaine hydrochloride]: the “APOC3 transcript change (Z-score)” value is -0.423.

For `OCCN1CCN(CCCN2c3ccccc3Sc3ccc(C(F)(F)F)cc32)CC1` [Fluphenazine dihydrochloride], the “APOC3 transcript change (Z-score)” value is 0.651.

Turning to `Nc1nnc(-c2cccc(Cl)c2Cl)c(N)n1` [lamotrigine], the “APOC3 transcript change (Z-score)” value worked out at 0.255.

Take `O=C1CN(/N=C/c2ccc(-c3ccc([N+](=O)[O-])cc3)o2)C(=O)N1` [dantrolene sodium]: the “APOC3 transcript change (Z-score)” value was -0.589.

For the compound `CCN(CC)CCNC(=O)c1cc(S(C)(=O)=O)ccc1OC` [tiapride hydrochloride], the “APOC3 transcript change (Z-score)” value was determined as 0.907.

In the case of `CCOc1nc2cccc(C(=O)OC(C)OC(=O)OC3CCCCC3)c2n1Cc1ccc(-c2ccccc2-c2nn[nH]n2)cc1` (stereo not given) [candesartan cilextil], the “APOC3 transcript change (Z-score)” value is -0.216.

As to `Cc1c2oc3c(C)ccc(C(=O)OC(C)C4NC(=O)C(C(C)C)N(C)C(=O)CN(C)C(=O)C5CCCN5C(=O)C(C(C)C)NC4=O)c3nc-2c(C(=O)OC(C)C2NC(=O)C(C(C)C)N(C)C(=O)CN(C)C(=O)C3CCCN3C(=O)C(C(C)C)NC2=O)c(N)c1=O` (stereo not given) [dactinomycin], the “APOC3 transcript change (Z-score)” value came out at 1.74.

For the compound `CC(=O)Oc1ccccc1C(=O)O` [aspirin], the “APOC3 transcript change (Z-score)” value is 0.0873.

For `COCCCC/C(=N\OCCN)c1ccc(C(F)(F)F)cc1` [fluvoxamine maleate], the “APOC3 transcript change (Z-score)” value was -0.999.

On to `CC(=O)O[C@]1(C(C)=O)CCC2C3C[C@H](C)C4=CC(=O)CC[C@]4(C)C3CC[C@@]21C` (stereo not given in full) [medroxyprogesterone acetate], for which the “APOC3 transcript change (Z-score)” value is 0.148.

In the case of `Cc1ncc(CO)c(CO)c1O` [pyridoxine], the “APOC3 transcript change (Z-score)” value was -0.0627.

For `CC(C)(C#N)c1cc(Cn2cncn2)cc(C(C)(C)C#N)c1` [anastrozole], the “APOC3 transcript change (Z-score)” value is 0.405.

In the case of `O=NN(CCCl)C(=O)NCCCl` [carmustine], the “APOC3 transcript change (Z-score)” value is -0.0873.

Turning to `N[C@@H](CCC(=O)N[C@@H](CS)C(=O)NCC(=O)O)C(=O)O` [glutathione], the “APOC3 transcript change (Z-score)” value was -0.373.

With `CN1CC(=O)N2[C@H](c3ccc4c(c3)OCO4)c3[nH]c4ccccc4c3C[C@@H]2C1=O` [tadalafil], the “APOC3 transcript change (Z-score)” value was -0.0311.

For `N[C@@H]1CONC1=O` [D-Cycloserine], the “APOC3 transcript change (Z-score)” value was -0.465.

Turning to `CCCCC(CC)CCC(CC(C)C)OS(=O)(=O)O` (stereo not given) [sodium tetradecyl sulfate], the “APOC3 transcript change (Z-score)” value was -0.708.

In the case of `CN1C(=O)CC[C@H]1c1cccnc1` [cotinine], the “APOC3 transcript change (Z-score)” value stood at 0.553.

`O=C(O)c1cn(-c2ccc(F)cc2)c2cc(N3CCNCC3)c(F)cc2c1=O` [sarafloxacin hydrochloride]: the “APOC3 transcript change (Z-score)” value stood at 0.672.

For the compound `CC(=O)O[C@]1(C(C)=O)CC[C@H]2[C@@H]3C=C(Cl)C4=CC(=O)[C@@H]5C[C@@H]5[C@]4(C)[C@H]3CC[C@@]21C` [cyproterone acetate], the “APOC3 transcript change (Z-score)” value is -0.0728.
